The values that follow come from article PMC5706420.

Chains of the proteins cited; added tags and fusions are not shown. Lines headed by an entry give the natural chain unless they say otherwise; changes in a name come on top. Residues count along the entry.
UniProt Q96EB6: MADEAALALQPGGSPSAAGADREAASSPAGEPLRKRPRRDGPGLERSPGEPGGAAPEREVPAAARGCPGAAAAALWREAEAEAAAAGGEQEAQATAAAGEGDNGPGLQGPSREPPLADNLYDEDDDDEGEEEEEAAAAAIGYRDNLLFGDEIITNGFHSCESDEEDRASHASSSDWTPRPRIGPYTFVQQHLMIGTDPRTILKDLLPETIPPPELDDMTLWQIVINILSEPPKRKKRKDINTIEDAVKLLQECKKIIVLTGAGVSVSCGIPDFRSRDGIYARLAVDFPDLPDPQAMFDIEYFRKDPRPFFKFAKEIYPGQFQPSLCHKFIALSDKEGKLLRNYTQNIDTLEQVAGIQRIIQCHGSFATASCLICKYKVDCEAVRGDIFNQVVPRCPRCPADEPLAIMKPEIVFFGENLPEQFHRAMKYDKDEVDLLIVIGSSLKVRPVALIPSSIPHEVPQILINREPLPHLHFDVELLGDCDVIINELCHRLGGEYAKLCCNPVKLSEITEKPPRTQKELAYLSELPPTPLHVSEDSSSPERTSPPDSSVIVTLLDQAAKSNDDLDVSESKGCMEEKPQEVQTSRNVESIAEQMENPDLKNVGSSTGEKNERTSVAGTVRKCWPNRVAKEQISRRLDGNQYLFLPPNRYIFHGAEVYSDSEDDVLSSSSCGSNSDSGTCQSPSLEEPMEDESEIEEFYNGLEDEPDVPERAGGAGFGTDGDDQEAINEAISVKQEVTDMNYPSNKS
Sirt1-6xHis AB fragment: residues 1-364 of Q96EB6
UniProt Q15796: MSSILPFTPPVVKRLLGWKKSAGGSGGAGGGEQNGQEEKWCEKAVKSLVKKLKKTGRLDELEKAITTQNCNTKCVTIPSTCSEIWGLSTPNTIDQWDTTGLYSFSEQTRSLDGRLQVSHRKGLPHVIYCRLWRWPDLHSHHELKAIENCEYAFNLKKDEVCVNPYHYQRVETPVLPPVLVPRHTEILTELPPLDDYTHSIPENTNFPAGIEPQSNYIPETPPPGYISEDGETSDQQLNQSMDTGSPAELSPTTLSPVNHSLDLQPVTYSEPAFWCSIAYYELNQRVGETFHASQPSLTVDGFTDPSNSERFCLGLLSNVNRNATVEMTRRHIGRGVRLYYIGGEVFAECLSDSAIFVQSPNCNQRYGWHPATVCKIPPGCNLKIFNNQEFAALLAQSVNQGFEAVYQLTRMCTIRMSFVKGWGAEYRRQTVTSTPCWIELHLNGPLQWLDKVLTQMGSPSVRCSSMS
UniProt P84022: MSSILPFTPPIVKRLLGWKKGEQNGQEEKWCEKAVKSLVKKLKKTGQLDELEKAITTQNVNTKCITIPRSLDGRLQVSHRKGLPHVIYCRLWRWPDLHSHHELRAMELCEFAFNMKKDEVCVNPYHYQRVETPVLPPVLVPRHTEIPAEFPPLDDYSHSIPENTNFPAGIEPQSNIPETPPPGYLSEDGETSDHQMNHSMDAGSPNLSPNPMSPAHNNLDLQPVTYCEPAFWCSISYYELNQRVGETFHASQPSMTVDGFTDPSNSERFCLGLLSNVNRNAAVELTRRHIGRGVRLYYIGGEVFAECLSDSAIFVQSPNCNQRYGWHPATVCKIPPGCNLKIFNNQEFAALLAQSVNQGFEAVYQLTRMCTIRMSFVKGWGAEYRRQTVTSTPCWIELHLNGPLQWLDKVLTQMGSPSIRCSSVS

These are yes or no findings as the source states them, for the method shown. Some entries that bind do so weakly or less than the wild type.

Test [1] has as its target Sirt1^H363Y, His-tagged (pull-down, data not shown) (human) (UniProt Q96EB6). As to the kind of experiment: pull-down; data not shown; Sirt1^H363Y in place of wild type Sirt1 with full length GST-Smads and GST-Smad2 fragments; both purified.
In the next test the target is Sirt1WT-6xHis (human) (UniProt Q96EB6). As to the kind of experiment: pull-down; 4 μg GST-fusion protein mixed with 20 μl (10-20 μg) resin-coupled Sirt1WT-6xHis in 400 μl 50 mM HEPES pH 7.2, 300 mM NaCl, 1% Triton X-100, 10% glycerol, BSA 0.2 mg/ml; 2 h at 4 °C; Western blot; both purified.
Test [2] concerns the target Sirt1-6xHis AB fragment (human) (UniProt Q96EB6). As to the kind of experiment: pull-down; Flag-Smad2 affinity-purified from transfected HEK293T cells (FLAG peptide elution) added to resin-coupled Sirt1-6xHis or its 6xHis fragments; 2 h at 4 °C; Western blot; both purified. On the technique in general: In western blotting, separated proteins are transferred to a membrane and probed.

Consider “full length GST-Smad2 (from UniProt Q15796 1-467)”, for which, in test [1], the binding entry is listed as “binds”.

For “GST-Smad2 MH2 domain (from UniProt Q15796 274-467) (domain or fragment)”, the binding entry (with Sirt1WT-6xHis (human); in test [1]) was “binds weakly” each time.

Regarding “full length GST-Smad3 (from UniProt P84022 1-425)”, the binding entry (in the test with Sirt1WT-6xHis (human); in test [1]) was “binds” throughout.

Flag-Smad2 (from UniProt Q15796 1-467): the binding entry in test [2] is “binds”.

Take “GST-Smad2 MH1 domain (from UniProt Q15796 10-176) (domain or fragment)”: the binding entry (with Sirt1WT-6xHis (human); in test [1]) was “binds” in each case.
